Data on 1 substance can be found in paper PMC6894230.

Protein sequences, listed by entry. Tags and fused reporters are not part of them. Residues count along the entry.
UniProt P05067, residues 672-770: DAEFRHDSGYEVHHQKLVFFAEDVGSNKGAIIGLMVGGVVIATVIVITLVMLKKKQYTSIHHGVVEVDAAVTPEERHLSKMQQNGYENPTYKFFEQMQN
UniProt Q92673, residues 82-2214: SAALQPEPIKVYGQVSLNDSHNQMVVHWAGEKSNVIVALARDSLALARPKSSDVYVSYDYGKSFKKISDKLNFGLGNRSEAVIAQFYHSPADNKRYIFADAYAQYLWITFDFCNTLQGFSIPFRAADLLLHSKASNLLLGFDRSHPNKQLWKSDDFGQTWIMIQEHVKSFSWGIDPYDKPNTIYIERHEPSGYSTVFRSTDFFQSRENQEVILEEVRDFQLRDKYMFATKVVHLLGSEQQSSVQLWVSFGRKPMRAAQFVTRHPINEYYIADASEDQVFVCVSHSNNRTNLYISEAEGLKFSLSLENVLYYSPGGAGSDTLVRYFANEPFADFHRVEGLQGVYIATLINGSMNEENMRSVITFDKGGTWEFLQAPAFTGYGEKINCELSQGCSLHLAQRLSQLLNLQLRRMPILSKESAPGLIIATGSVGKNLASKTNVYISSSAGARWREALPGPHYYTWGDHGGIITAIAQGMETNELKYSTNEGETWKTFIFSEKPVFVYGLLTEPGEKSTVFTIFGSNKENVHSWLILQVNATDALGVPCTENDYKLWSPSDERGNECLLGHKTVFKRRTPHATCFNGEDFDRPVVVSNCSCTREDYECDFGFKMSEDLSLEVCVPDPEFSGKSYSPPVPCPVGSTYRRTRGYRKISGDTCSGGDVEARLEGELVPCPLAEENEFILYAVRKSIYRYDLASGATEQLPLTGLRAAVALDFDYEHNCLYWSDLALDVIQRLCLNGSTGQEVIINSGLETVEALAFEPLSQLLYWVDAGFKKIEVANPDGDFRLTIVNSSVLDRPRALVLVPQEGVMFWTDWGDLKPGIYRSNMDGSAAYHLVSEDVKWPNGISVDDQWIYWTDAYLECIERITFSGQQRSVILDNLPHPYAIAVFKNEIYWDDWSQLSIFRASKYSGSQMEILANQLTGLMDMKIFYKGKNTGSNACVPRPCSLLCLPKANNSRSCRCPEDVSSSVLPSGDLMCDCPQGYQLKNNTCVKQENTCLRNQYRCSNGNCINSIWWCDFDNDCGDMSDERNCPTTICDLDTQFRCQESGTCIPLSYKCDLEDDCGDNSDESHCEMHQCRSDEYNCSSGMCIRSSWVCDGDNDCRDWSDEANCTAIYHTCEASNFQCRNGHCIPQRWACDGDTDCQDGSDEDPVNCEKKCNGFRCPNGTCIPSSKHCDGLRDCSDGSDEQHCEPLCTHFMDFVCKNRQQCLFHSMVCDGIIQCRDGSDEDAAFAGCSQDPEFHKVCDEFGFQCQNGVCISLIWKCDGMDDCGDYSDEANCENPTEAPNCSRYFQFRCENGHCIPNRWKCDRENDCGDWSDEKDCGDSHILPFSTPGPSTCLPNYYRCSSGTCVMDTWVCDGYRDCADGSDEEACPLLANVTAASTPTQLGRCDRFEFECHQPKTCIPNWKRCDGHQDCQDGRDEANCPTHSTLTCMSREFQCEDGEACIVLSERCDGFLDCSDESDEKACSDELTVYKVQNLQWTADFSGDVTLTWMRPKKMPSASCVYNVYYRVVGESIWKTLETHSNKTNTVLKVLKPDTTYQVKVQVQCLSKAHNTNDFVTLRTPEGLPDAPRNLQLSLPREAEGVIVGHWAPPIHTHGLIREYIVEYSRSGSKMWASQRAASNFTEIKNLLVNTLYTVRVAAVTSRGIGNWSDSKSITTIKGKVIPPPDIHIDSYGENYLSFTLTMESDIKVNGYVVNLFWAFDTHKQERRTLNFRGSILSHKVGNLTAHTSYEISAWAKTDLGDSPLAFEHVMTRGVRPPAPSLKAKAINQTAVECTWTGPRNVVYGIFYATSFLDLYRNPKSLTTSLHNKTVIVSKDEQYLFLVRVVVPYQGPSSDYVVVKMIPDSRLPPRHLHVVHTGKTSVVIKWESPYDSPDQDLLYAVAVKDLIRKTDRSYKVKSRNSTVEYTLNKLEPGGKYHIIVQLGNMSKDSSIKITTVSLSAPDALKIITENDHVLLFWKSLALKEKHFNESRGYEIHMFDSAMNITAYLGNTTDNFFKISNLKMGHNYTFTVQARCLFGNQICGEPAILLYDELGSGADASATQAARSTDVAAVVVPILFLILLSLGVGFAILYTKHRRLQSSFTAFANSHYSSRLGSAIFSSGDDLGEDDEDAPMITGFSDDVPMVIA

In assay [1] the target is C99 (stable inducible C99-expressing HEK293 cells; APP-CTFs precipitated with α-APPct) (UniProt P05067). The experiment in a line: co-IP; vehicle-treated cells; RIPA lysate (500 μg), α-APPct antibody and Protein A Sepharose, washes in RIPA, blot with anti-myc 9E10.
The target is the same in assay [2]. The assay is described as follows: condition: only cells treated with the γ-secretase inhibitor D6 (1 μM); co-IP; cells treated with the γ-secretase inhibitor D6 (1 μM); RIPA lysate (500 μg), α-APPct antibody and Protein A Sepharose, blot with anti-myc 9E10.

No constants are given. Whether binding was seen depends on the method and setting. In cells and extracts the contact can be indirect. Some entries that bind do so weakly or less than the wild type.

For “myc-tagged SorLA (sortilin receptor with A-type repeats) (from UniProt Q92673 82-2214)”, the binding result is recorded as “binds” in assay [1] and “no binding” in assay [2].
